Measured values from article PMC5799368.
These are yes or no findings as the source states them, for the method shown. For some of these results: In cells and extracts the contact can be indirect. Some results given as binding are weak or reduced against the parent protein; the word gives no strength. For some of these results: Where a sequence is shown, tags or fusion partners need not be part of it. Blank lines part the entries; values can stand above or below the molecule they belong to.

How the values were obtained:
[1] = target: androgen receptor (AR), full length, endogenous (human (endogenous in C4-2, 22Rv1, LuCaP PDX tissue)) (UniProt P10275); assay: co-IP; lysates of CRPC patient-derived xenograft tissues LuCaP 35CR and 86.2CR; anti-BMI1 or anti-AR antibody, rabbit IgG as control
[2] = target: AR variant AR-V7, endogenous in 22Rv1 cells (human (endogenous in 22Rv1)) (UniProt P10275); assay: co-IP; total lysate of 22Rv1 cells, endogenous proteins; IP with anti-AR, anti-BMI1 or anti-RING1B, rabbit IgG as control
[3] = target: androgen receptor (AR), full length, endogenous (human (endogenous in C4-2, 22Rv1, LuCaP PDX tissue)) (UniProt P10275); assay: as above
[4] = target: AR-V7, ectopically overexpressed in 293T cells (UniProt P10275); assay: co-IP; lysates of 293T cells transfected with full-length wild-type AR, AR-V7 or AR-V^e567s; IP with anti-AR or anti-BMI1 antibody, rabbit IgG as control
[5] = target: androgen receptor (AR), full length, endogenous (human (endogenous in C4-2, 22Rv1, LuCaP PDX tissue)) (UniProt P10275); assay: co-IP; total lysate of C4-2 cells, endogenous proteins; IP with anti-AR, anti-BMI1 or anti-RING1B, rabbit IgG as control; NP-40 lysis buffer, antibodies at 4 °C overnight
Halo-AR (full length) = Halo-AR (full length) (UniProt P10275); assay: pull-down; lysates of 293T cells transfected with Halo-AR constructs or empty vector; halo-tag magnetic beads, immunoblot
[6] = target: androgen receptor (AR), full length, endogenous (human (endogenous in C4-2, 22Rv1, LuCaP PDX tissue)) (UniProt P10275); assay: co-IP; fractions #16 and #26 of the size-exclusion chromatography of C4-2 nuclear extracts; IP with anti-BMI1, anti-AR or anti-RING1B, rabbit IgG as control
[7] = target: AR variant AR-V7, endogenous in 22Rv1 cells (human (endogenous in 22Rv1)) (UniProt P10275); assay: co-IP; nuclear extracts of 22Rv1 cells grown in charcoal-stripped serum medium (androgen-depleted) for 48 h
[8] = target: androgen receptor (AR), full length, endogenous (human (endogenous in C4-2, 22Rv1, LuCaP PDX tissue)) (UniProt P10275); assay: as above
[9] = target: BMI1 (B lymphoma Mo-MLV insertion region 1) (human (endogenous in C4-2, 22Rv1, LuCaP PDX tissue, 293T)) (UniProt P35226); assay: SEC; C4-2 nuclear extract (5 mg) on Sephacryl S-300 HR column, fractions immunoblotted
[10] = target: BMI1 (B lymphoma Mo-MLV insertion region 1) (human (endogenous in C4-2, 22Rv1, LuCaP PDX tissue, 293T)) (UniProt P35226); assay: co-IP; total lysate of C4-2 cells, endogenous proteins; IP with anti-AR, anti-BMI1 or anti-RING1B, rabbit IgG as control; NP-40 lysis buffer, antibodies at 4 °C overnight
[11] = target: BMI1 (B lymphoma Mo-MLV insertion region 1) (human (endogenous in C4-2, 22Rv1, LuCaP PDX tissue, 293T)) (UniProt P35226); assay: co-IP; fractions #16 and #26 of the size-exclusion chromatography of C4-2 nuclear extracts; IP with anti-BMI1, anti-AR or anti-RING1B, rabbit IgG as control
[12] = target: BMI1 (B lymphoma Mo-MLV insertion region 1) (human (endogenous in C4-2, 22Rv1, LuCaP PDX tissue, 293T)) (UniProt P35226); assay: co-IP; lysates of 293T cells transfected with Halo-AR constructs or empty vector; IP with anti-BMI1 antibody, immunoblot
[13] = target: RING1B of the in vitro-binding assay (Fig. 3d) (UniProt Q99496); assay: co-IP; in vitro-binding assay: GST-mBMI1 constructs incubated with RING1B for 12 h, IP with anti-RING1B antibody; both purified
[14] = target: T1, RING1B (ring finger protein 2), endogenous (human (endogenous in C4-2, 22Rv1)), Q99496; assay: co-IP; fractions #16 and #26 of the size-exclusion chromatography of C4-2 nuclear extracts; IP with anti-BMI1, anti-AR or anti-RING1B, rabbit IgG as control; conditions: remark: other sources report otherwise
T1 chain: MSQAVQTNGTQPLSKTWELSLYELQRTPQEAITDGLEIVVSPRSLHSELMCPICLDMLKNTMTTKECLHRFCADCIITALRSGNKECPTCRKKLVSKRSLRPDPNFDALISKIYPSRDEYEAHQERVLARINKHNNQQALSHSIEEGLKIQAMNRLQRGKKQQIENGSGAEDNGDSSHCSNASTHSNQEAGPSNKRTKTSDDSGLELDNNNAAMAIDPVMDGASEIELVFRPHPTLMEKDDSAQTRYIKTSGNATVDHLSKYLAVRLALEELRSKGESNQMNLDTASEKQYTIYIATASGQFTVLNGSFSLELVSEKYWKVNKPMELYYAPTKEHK

[15] = target: T2, androgen receptor (AR), full length, endogenous (human (endogenous in C4-2, 22Rv1, LuCaP PDX tissue)), P10275; assay: co-IP; total lysate of C4-2 cells, endogenous proteins; IP with anti-AR, anti-BMI1 or anti-RING1B, rabbit IgG as control; NP-40 lysis buffer, antibodies at 4 °C overnight; conditions: remark: other sources report otherwise
T2 chain: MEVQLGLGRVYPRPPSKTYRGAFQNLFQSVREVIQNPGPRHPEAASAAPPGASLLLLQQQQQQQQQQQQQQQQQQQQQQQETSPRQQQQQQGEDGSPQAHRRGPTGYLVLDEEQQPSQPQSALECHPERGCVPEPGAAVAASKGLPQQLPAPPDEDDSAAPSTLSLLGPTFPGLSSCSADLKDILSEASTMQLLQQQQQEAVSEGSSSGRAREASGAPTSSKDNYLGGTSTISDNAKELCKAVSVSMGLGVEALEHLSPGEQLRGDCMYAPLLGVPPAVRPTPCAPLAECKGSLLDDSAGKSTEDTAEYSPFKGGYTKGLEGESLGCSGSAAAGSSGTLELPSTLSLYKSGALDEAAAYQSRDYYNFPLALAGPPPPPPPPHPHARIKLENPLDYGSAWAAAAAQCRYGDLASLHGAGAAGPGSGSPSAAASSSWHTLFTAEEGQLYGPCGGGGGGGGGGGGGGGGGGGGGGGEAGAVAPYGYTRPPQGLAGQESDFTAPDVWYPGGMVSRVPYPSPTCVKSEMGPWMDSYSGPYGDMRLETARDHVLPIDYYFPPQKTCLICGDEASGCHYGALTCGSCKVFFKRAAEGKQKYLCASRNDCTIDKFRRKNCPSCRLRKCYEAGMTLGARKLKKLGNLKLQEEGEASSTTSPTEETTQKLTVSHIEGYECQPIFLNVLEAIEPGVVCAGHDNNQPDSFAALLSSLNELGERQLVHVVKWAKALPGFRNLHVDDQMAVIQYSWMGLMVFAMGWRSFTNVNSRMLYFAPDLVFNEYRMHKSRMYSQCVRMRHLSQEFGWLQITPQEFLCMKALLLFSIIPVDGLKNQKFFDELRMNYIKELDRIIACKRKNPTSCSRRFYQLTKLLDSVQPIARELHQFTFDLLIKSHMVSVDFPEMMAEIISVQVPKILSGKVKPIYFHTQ

[16] = target: T2, androgen receptor (AR), full length, …; assay: co-IP; fractions #16 and #26 of the size-exclusion chromatography of C4-2 nuclear extracts; IP with anti-BMI1, anti-AR or anti-RING1B, rabbit IgG as control; conditions: remark: other sources report otherwise
[17] = target: T2, androgen receptor (AR), full length, …; assay: co-IP; total lysate of 22Rv1 cells, endogenous proteins; IP with anti-AR, anti-BMI1 or anti-RING1B, rabbit IgG as control; conditions: remark: other sources report otherwise

Molecule: RING1B (ring finger protein 2), endogenous (from UniProt Q99496 1-336)
binding [2]: no binding

Molecule: Halo-AR (full length) (from UniProt P10275 1-920)
binding [12]: binds

B2: androgen receptor (AR), full length, endogenous, P10275 1-920 (protein)
chain: T2 chain
binding [14]: no binding

Now from value to molecule:

binding [1]: binds
binding [2]: binds
binding [3]: binds
binding [4]: binds
binding [5]: binds
binding (Halo-AR (full length)): binds
binding [6]: binds
binding [7]: binds
binding [8]: binds
Molecule: BMI1 (B lymphoma Mo-MLV insertion region 1) (from UniProt P35226 1-326)

binding [9]: binds
binding [10]: binds
binding [11]: binds
Molecule: androgen receptor (AR), full length, endogenous (from UniProt P10275 1-920)

binding [13]: binds
B1: GST fusion protein containing full-length mBMI1 (protein, UniProt P25916 1-324)
chain: MHRTTRIKITELNPHLMCVLCGGYFIDATTIIECLHSFCKTCIVRYLETSKYCPICDVQVHKTRPLLNIRSDKTLQDIVYKLVPGLFKNEMKRRRDFYAAHPSADAANGSNEDRGEVADEEKRIITDDEIISLSIEFFDQSRLDRKVNKEKPKEEVNDKRYLRCPAAMTVMHLRKFLRSKMDIPNTFQIDVMYEEEPLKDYYTLMDIAYIYTWRRNGPLPLKYRVRPTCKRMKMSHQRDGLTNAGELESDSGSDKANSPAGGVPSTSSCLPSPSTPVQSPHPQFPHISSTMNGTSNSPSANHQSSFASRPRKSSLNGSSATSSG

binding [15]: no binding
binding [16]: no binding
binding [17]: no binding
B3: RING1B (ring finger protein 2), endogenous, Q99496 1-336 (protein)
chain: T1 chain
